These results are taken from PubChem BioAssay AID1508600 (Functional Genomics Laboratory (NCATS/FGL), 2020).

In all, about 53,000 sequences went through this assay and about 3,700 (7%) were called active.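 The calls were made as follows: active = gene knockdowns whose robust z-score for IL-1 alpha signal is at least 2 or at most -2, so actives lie on both sides; inactive = the rest.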 This is one part of the list.

This experiment is described as follows: Components of the Cytosolic LPS Sensing Pathway: Gene Identification via Genome-wide siRNA Screen.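 Also: robust z of the log signal after scaling to non-targeting control siRNA wells of the plate.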 The note with it: RAW264.7 macrophages, IL-1a HTRF, actives lie on both sides, screened at 100 nM (by protocol), cells primed 5 h with Pam3CSK4 first. The method, boiled down: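 RAW264.7 mouse macrophages reverse-transfected with single siRNAs (100 nM final) for 48h, primed with Pam3CSK4 for 5 hours, then transfected with LipidA for 24 hour. Supernatant IL-1a read by HTRF; values normalized to negative-control median, log-transformed robust z-scores.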
On the technique in general: In TR-FRET formats the signal depends on donor and acceptor labels being close together.
As for “GGAAGUGAGGAAGUGACAUTT against 1810009N02Rik”, the z-score is inactive: -1.34.
The same measure for GGAGUUUUCUCGAAACUUCTT against Fate1: inactive: 0.993; for GGAGUUCCUAUUUAAUCCCTT against Hoxb8: inactive: -0.419.
Then GCAAUGCACCAUUAGCAGCTT against Stard8, with inactive: -1.72; and GUACAAGUGUGGACCCUUATT against Chchd2, with inactive: 0.409; and GCAGAUGACUAUCGGAAGUTT against Usp53, with active: 2.19.
For GGAACAUCGUGACUUUAUATT against Uhmk1, the z-score was inactive: 1.06.
Turning to GGGUGAUACUGACAAUCAUTT against Fhod1, the z-score was inactive: 0.624.
Then CCCUCAGGACACGUUUUAGTT against Wdsub1, with active: -2.14; and GGCACAGCUUGCUGAAGCUTT against Atp11b, with inactive: -1.76.
Then GGCCAAGAUCCAGAAGAAGTT against Ush1g, with inactive: -1.45; and UUUCCCGACCUCUCCACUATT against Olfr463, with inactive: 0.216.
The same measure for GCUGGCUUCAUUUUACUUATT against Degs1: inactive: 0.126; for GCCAAGAUCCCACCAGUUATT against Neurl1b: inactive: 0.639.
As to CUUUUCAAGCAGGAGAGUUTT against Mterf1a, the z-score was inactive: -0.0711.
The same measure for GGUGGAGAAGAGUUUCUGCTT against Gpr132: inactive: 0.375.
The same measure for GCUCUGGAGGAAAAAAAUATT against Olfr1255: inactive: 0.26.
For the sequence CCCACCAGCGGAAUUUGAUTT against Acp7, the z-score was inactive: 0.826.
Then GGAACUGCUUACGAAAUACTT against Lama4, with active: -2.33; and GGCAGAUAUUUAGAUGAUGTT against Pdyn, with inactive: -0.932; and GCAUGAAGGCAAUAUUUCATT against Zfp758, with inactive: 0.574.
On to GGAAUUUAGGAAGCAAAAGTT against Rcc2, for which the z-score is inactive: -0.533.
The same measure for GGCUAGGACCCAAGUUCUATT against Thra: inactive: 1.69; for CCCUAUUGCUAAAUCCUAATT against Gprin3: inactive: -1.19.
As to GGCUCUUUAUGGACAUGGCTT against Tac1, the z-score was inactive: 0.447.
Then CCAGGAACAGCUAUCGGAUTT against Homer2, with inactive: -0.271; and CUACCUGUUUCCUAGCUUGTT against Drosha, with inactive: -0.854.
The same measure for CGGAUUCAGUAUUAGCAAUTT against Ogt: active: -2.4.
Then GGACUUUUGUGCUGUAUUUTT against Tfcp2l1, with inactive: -1.52; and GGAAGAGGACCAAAGUGCUTT against Pnpla7, with inactive: 1.75; and GCUGCUUUAUCGAGUGGUUTT against Capn8, with inactive: 0.841.
As for GGAAAGCAGACAUCGACCUTT against Rps18, the z-score was inactive: -0.848.
The same measure for CCCUCCGAAAAUUUUUCUGTT against Defb14: inactive: -0.363; for UCAUUCUACCUGGAACCGGTT against Vstm2l: inactive: 0.71.
Turning to GCCAGUUGUGACAAAACUATT against Abca1, the z-score was inactive: -1.22.
Turning to GCAGUGAACAGCUAUUAACTT against Styx, the z-score is inactive: 0.695.
Then GGUGCUGAAGAAGCACCAUTT against Stat5a, with inactive: 0.271; and GCCCAAAUGAGACUACUUUTT against Ces1e, with inactive: -1.24.
Turning to “GCUGCCGUUUAAAUAUAUGTT against D10Wsu102e”, the z-score is inactive: 0.31.
In the case of GGAUAACUACAGGAAUAAGTT against Spam1, the z-score is inactive: -0.701.
With CCUAAAGAAAGGUUAAAGATT against Sfr1, the z-score was inactive: -0.763.
Then CCCAUUGCCAGUACAACUUTT against Cxcr3, with inactive: -0.897; and CCUUGUUUUUCACAAAUCATT against Usp7, with inactive: -0.182.
The same measure for UGCUGUUAUCUGCUUACAGTT against Tomm6: inactive: -0.863; for GGACAGAAAGUUGUCUUUATT against Fam20b: inactive: 1.44.
Then GGAAUGAGAUUAUUUCUUGTT against Astn1, with inactive: -0.114.
For “AAUAACACGUCAGUUUAUCTT against A530064D06Rik”, the z-score is inactive: 0.263.
Then GGUACCAUGAAGGAUUUAUTT against Tspan2, with active: 3.24.
Then GGGCCAUGACAGAAUUCCATT against Ahsp, with inactive: -1.47; and CGGAAACAAUGCAAUGGCATT against Bcl11a, with inactive: -0.533; and GGAAAAUGGAAUUUGGUCCTT against Il12b, with inactive: 0.881.
Turning to GCACACUCUGUUAUAAAAUTT against Osbpl2, the z-score is inactive: -0.753.
The same measure for CUACUAUAGUGUAAUGGUGTT against Psg18: inactive: 0.307; for CGACUCAAUUUCUGUGGCCTT against Olfr525: inactive: -1.96; for GGUGUUCAAAAGUGGACUUTT against Pnck: inactive: -0.771.
The same measure for GCCUAUACAACCCUAUUGUTT against Kazn: inactive: -0.879; for CGCCUUUAGUAAGGAUCACTT against Tube1: inactive: -0.76; for GCUCACUAACUUUUACAAGTT against Fam166c: inactive: 0.419.
GCAAUCUCCAACAAACUCUTT against Gemin7: the z-score was inactive: 1.23.
Then GGGAAGUGCCUCCUAUACUTT against Slc25a39, with inactive: -0.405; and GCUGACUUCACAUUUGGCUTT against Mms19, with inactive: -0.24.
Then GGCAACUGGAAAUCUGGGATT against Adar, with inactive: -0.153; and GGAGGUGUUGGCUCACAACTT against Fam234b, with inactive: -0.527.
The same measure for GAAGAUGCCACGCUAAAAATT against Adam34: active: 2.73; for GCAGUGCAGUGGAUCAAAUTT against Erap1: inactive: 1.16; for GGCCUUUUACUGUUCUGUGTT against Zfp273: inactive: -0.729.
Turning to “GGAACUUUGUUAAAAUGGATT against 4932414N04Rik”, the z-score was inactive: -0.979.
Then GGAGGGAAGCGAGAGUUUUTT against Emilin2, with active: 2.25.
Then CCUGUUUCGUAGAUUGUUUTT against Eftud2, with inactive: -0.35; and GGUGAAGAAAGCACUGUUUTT against Olfr980, with inactive: 0.0649; and GGAGGAAGGCUUCCUAAAGTT against Slc25a27, with inactive: 0.666.
Then GGAACAACAUUGUUCUAAATT against Fstl5, with inactive: 0.759.
In the case of GGCCAUCAUUGAGGAAUAUTT against Eif4g1, the z-score was inactive: -0.81.
For GGACAGCUCUCUUUAGUCUTT against Erf, the z-score was inactive: -1.78.
The same measure for GGAUGCUUGUGGACCUGUGTT against Olfr1123: inactive: 1.14; for GGCCUCAAAUACCAUAACATT against Zfp941: inactive: 0.000237.
Then GGAGGUUAUGUUUAAAACUTT against Dync1h1, with inactive: -0.649; and GGGCCUUCAAAACGAGAAGTT against Cyp4f39, with inactive: 0.339; and GCUUUGUUUGAAAAUGCGATT against Nrde2, with inactive: -0.66.
As to CGGACGACUCCCUUAUUCATT against Adrm1, the z-score was inactive: -1.29.
Then GGACGUGCAGGAAAUGCAUTT against Alas1, with inactive: -0.049; and GCAGUUCUGAAUCAUUAAGTT against Pot1a, with inactive: -1.39; and GCCUAACAUCUGUCCCUAUTT against Tmem106c, with inactive: 0.0058.
The same measure for GGAAUCCUUUUGGAUAACATT against Dock4: inactive: -0.54.
Then CGUCUGAUCUAGAUGACUCTT against Msantd4, with inactive: 0.319; and GCAGAUGAUACGCAUGCAGTT against Ccdc91, with inactive: -0.65; and GCUAUGACAGUUAUGCUACTT against Cirbp, with inactive: 0.874.
As to CGGGUUUUUCCAGUAGAUUTT against Ebag9, the z-score was inactive: 0.0321.
On to GGUUCAGACAAGCAUCUAGTT against Sbp, for which the z-score is inactive: -1.04.
With GGAGGCAAAAAUGAUGCUATT against Slpi, the z-score was inactive: 1.97.
Regarding GGAACAGAGAGUGGAGCUUTT against Rnd1, the z-score is inactive: 0.787.
Then GGCCGUACAUCAACAUUACTT against C1qtnf6, with inactive: 0.115; and GCUAGCUAGAACAAGUAAATT against Slmap, with inactive: -1.72; and GCAACGUGGUCUAUGAAUUTT against Disp2, with inactive: -0.694.
The same measure for GCUAAUUCUCAGAACUCUATT against Tas2r130: inactive: -0.5.
The same measure for GGUAAUAGAGGAGAAGAAUTT against Phc1: inactive: 0.266.
Consider GGAAUCAUUGACGUAAUCATT against Chil3, for which the z-score is inactive: 1.99.
The same measure for GGAGUCUUAUGUCUUGGAUTT against Aldh1b1: inactive: -0.443; for GGGAAAAAACCCUGUUCUUTT against Zfp11: inactive: 0.703; for GGAAAAACAUGCCAAAAAATT against Mettl15: inactive: -0.222.
Then GGGACUCCCAAACAACAAATT against Lair1, with inactive: 0.185; and GCUGACAGACUUAUUACUUTT against Cul4b, with inactive: 0.201.
As for CGGAACAGACCAUCUCACUTT against Plec, the z-score was inactive: 0.0343.
The same measure for AUGAAAGCAUUCUAAGAAGTT against LOC434320: inactive: -0.22; for GGAGAUCAUCAACAUCGCCTT against Nptx2: inactive: 0.22; for “GGGACGAUUACCCUUAUUGTT against 1700084J12Rik”: inactive: 0.709.
